The results in this text go back to paper PMC5725453.

Chains of the proteins cited; added tags and fusions are not shown.
UniProt Q9H3P7: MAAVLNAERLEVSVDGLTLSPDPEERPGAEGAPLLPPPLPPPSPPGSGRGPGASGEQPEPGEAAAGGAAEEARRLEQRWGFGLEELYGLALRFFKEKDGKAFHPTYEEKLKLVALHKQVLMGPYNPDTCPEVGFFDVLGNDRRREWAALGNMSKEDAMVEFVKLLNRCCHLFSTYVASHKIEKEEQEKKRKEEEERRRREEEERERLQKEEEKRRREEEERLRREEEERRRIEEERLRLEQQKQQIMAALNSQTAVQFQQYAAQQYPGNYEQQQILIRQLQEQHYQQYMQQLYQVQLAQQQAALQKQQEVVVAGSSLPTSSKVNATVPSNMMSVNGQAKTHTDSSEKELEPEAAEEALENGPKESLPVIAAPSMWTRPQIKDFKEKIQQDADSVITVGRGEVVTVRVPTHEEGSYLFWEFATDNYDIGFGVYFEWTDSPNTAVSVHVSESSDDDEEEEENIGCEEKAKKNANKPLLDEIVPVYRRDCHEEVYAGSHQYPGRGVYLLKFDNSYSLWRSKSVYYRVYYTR

These are yes or no findings as the source states them, for the method shown. Some entries that bind do so weakly or less than the wild type.

The experiment concerns the target ACBD3 (unlabeled) (UniProt Q9H3P7). Briefly: GUV membrane recruitment assay (confocal microscopy); CFP-3A tethered to GUVs containing 5% DGS-NTA(Ni); Alexa488 labeled PI4KB and unlabeled ACBD3 added together (250 nM each); both purified.

B1: PI4KB labeled by Alexa488 (with deleted disordered loop 424-521) (enzyme, UniProt Q9UBF8)
chain: MGDTVVEPAPLKPTSEPTSGPPGNNGGSLLSVITEGVGELSVIDPEVAQKACQEVLEKVKLLHGGVAVSSRGTPLELVNGDGVDSEIRCLDDPPAQIREEEDEMGAAVASGTAKGARRRRQNNSAKQSWLLRLFESKLFDISMAISYLYNSKEPGVQAYIGNRLFCFRNEDVDFYLPQLLNMYIHMDEDVGDAIKPYIVHRCRQSINFSLQCALLLGAYSSDMHISTQRHSRGTKLRKLILSDELKPAHRKRELPSLSPAPDTGLSPSKRTHQRSKSDATASISLSSNLKRTASNPKVENEDEELSSSTESIDNSFSSPVRLAPEREFIKSLMAIGKRLATLPTKEQKTQRLISELSLLNHKLPARVWLPTAGFDHHVVRVPHTQAVVLNSKDKAPYLIYVEVLECENFDTTSVPARIPENRIKRDPEDPSAVALKEPWQEKVRRIREGSPYGHLPNWRLLSVIVKCGDDLRQELLAFQVLKQLQSIWEQERVPLWIKPYKILVISADSGMIEPVVNAVSIHQVKKQSQLSLLDYFLQEHGSYTTEAFLSAQRNFVQSCAGYCLVCYLLQVKDRHNGNILLDAEGHIIHIDFGFILSSSPRNLGFETSAFKLTTEFVDVMGGLDGDMFNYYKMLMLQGLIAARKHMDKVVQIVEIMQQGSQLPCFHGSSTIRNLKERFHMSMTEEQLQLLVEQMVDGSMRSITTKLYDGFQYLTNGIM
modifications: Alexa488 maleimide on native cysteine residues (labeling efficiency 116%)
For the molecule B1, the binding result is recorded as “binds”.
